Test results taken from article PMC6261992, “Structural insight into D-xylose utilization by xylose reductase from Scheffersomyces stipitis” (Scientific Reports, 2018).
Results are given in words; binding and its absence hold for the method and conditions named. Sequences can lack the tags named with a protein.

Target: D-xylose reductase from Scheffersomyces stipitis (Scheffersomyces stipitis) (UniProt P31867)
Assay: SEC; analytical, Superdex increase 200 10/300 GL, 40 mM Tris-HCl pH 8.0, 150 mM NaCl; 0.5 mL at 1 mg/mL; both purified

binding: no binding (condition: with 150 mM NaCl)
B1: D-xylose reductase from Scheffersomyces stipitis (enzyme, UniProt P31867 1-318, looked up)
chain: MPSIKLNSGYDMPAVGFGCWKVDVDTCSEQIYRAIKTGYRLFDGAEDYANEKLVGAGVKKAIDEGIVKREDLFLTSKLWNNYHHPDNVEKALNRTLSDLQVDYVDLFLIHFPVTFKFVPLEEKYPPGFYCGKGDNFDYEDVPILETWKALEKLVKAGKIRSIGVSNFPGALLLDLLRGATIKPSVLQVEHHPYLQQPRLIEFAQSRGIAVTAYSSFGPQSFVELNQGRALNTSPLFENETIKAIAAKHGKSPAQVLLRWSSQRGIAIIPKSNTVPRLLENKDVNSFDLDEQDFADIAKLDINLRFNDPWDWDKIPIFV
notes: D-xylose reductase (SsXR) of Scheffersomyces stipitis; cloned NdeI/XhoI into pProEX-HTa; The vector adds a 6x-His tag with an rTEV protease cleavage site at the N-terminus; also called SsXR; XR; source: E. coli BL21(DE3)-T1R, purified (Ni-NTA, gel filtration)
